Laboratory results published in patent publication US20240084003A1.
These are yes or no findings as the source states them, for the method shown. Some entries that bind do so weakly or less than the wild type. For some assays here: Tags and fused reporters may be left off the sequences shown. One block for each binder: values may come before it.

By UniProt entry, the sequences of proteins in these tests, tags left out. Where a name states a change or a piece, a line headed by the entry shows the natural chain unless it says otherwise.
UniProt P20273: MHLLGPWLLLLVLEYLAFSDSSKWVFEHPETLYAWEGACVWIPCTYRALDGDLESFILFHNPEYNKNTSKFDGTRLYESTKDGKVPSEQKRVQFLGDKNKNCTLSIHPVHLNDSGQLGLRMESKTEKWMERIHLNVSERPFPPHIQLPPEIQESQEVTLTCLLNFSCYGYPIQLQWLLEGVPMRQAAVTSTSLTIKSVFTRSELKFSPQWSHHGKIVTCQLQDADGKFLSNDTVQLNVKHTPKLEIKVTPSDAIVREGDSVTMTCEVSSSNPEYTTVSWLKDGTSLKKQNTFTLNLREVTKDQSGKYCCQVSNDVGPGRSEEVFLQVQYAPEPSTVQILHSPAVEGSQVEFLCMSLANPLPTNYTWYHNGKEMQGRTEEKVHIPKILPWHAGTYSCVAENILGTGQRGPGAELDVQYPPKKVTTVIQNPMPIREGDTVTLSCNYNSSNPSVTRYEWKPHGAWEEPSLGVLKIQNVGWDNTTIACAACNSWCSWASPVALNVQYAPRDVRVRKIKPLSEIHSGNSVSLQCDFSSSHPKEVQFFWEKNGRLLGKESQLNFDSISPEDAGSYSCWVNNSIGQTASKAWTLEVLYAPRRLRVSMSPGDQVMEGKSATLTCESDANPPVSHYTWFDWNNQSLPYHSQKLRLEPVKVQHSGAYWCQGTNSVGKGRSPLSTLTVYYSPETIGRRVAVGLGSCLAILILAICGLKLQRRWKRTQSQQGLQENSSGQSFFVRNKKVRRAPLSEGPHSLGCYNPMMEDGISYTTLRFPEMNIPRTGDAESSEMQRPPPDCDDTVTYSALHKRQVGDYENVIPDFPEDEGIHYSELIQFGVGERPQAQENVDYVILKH

Assays:
[1] = target: human CD22 (full length, on cells) (human) (UniProt P20273); test: FACS, Raji cells (MoLT4 as CD22-negative cells)
[2] = target: T1, monkey CD22 protein (ACROBiosystems, SI2-R52Ha) (monkey (rhesus monkey in paragraph 148)) (UniProt H9G1X2); test: ELISA, monkey CD22-ECD-His coated
T1 sequence: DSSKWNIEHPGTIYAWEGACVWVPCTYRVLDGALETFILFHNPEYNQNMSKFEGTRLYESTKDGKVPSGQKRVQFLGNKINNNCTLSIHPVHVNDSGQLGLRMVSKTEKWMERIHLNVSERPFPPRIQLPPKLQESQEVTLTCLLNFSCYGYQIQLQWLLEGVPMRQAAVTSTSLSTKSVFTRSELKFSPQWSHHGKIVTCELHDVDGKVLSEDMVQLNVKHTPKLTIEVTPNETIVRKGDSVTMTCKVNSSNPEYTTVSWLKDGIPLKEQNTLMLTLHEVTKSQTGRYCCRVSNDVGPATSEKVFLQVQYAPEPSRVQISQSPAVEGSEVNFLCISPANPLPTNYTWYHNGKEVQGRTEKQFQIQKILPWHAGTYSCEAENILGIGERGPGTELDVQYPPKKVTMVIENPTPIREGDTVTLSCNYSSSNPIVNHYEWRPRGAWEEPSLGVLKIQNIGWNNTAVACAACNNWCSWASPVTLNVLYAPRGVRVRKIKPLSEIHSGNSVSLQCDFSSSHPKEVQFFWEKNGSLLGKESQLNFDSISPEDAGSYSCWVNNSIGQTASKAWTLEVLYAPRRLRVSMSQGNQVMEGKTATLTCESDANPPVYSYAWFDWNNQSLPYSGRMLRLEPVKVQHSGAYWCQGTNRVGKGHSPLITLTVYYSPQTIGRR

[3] = target: T1, monkey CD22 protein (ACROBiosystems, SI2-R52Ha) (monkey (rhesus monkey in paragraph 148)); test: ELISA, coated monkey CD22
[4] = target: human CD22-ECD-His protein (human) (UniProt P20273); test: ELISA, human CD22-ECD-His coated
[5] = target: T2, monkey CD22 (full length, on HEK293T cells) (monkey); test: FACS, HEK293T-monkey CD22 cells (293T as parent cells)
T2 sequence: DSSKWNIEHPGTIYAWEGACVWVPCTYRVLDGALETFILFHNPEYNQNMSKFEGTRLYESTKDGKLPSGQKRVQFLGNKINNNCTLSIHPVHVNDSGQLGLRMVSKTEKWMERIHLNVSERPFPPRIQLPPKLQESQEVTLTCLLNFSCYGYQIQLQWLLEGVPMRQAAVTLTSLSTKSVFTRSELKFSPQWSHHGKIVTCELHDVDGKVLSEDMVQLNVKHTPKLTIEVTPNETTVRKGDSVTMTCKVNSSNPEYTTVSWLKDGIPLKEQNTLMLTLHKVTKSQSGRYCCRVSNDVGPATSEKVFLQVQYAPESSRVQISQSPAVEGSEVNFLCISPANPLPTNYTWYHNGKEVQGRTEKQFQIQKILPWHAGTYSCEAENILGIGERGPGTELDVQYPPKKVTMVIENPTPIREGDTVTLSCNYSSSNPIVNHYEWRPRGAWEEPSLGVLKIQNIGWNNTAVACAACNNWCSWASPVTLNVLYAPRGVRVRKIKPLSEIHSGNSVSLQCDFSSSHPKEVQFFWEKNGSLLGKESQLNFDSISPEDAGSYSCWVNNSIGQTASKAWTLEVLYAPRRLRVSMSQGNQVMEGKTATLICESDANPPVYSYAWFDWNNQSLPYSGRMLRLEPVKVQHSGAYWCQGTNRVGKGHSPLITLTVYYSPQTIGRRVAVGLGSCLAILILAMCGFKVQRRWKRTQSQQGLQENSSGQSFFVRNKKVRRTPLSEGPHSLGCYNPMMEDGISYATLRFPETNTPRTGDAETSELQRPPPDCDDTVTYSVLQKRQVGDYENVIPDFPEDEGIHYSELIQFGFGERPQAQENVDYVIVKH

[6] = target: human CD22 (full length, on cells) (human) (UniProt P20273); test: FACS, CHO-K1-human CD22 cells (CHO-K1 as parent cells)
[7] = target: human CD22 domain1-4-His (human) (UniProt P20273); test: ELISA, plate coated with human CD22 domain1-4-His
[8] = target: human CD22-ECD-His protein (human) (UniProt P20273); test: ELISA, coated hCD22-ECD-His
[9] = target: human CD22 domain1-4-His (human) (UniProt P20273); test: ELISA, human CD22 domain1-4-His coated
[10] = target: T3, rhesus monkey CD22-ECD-His protein (rhesus monkey) (UniProt H9G1X2); test: SPR (Biacore), antibody captured on Protein A chip, rhesus CD22 in solution
T3 sequence: T1 sequence

[11] = target: human CD22 (full length, on cells) (human) (UniProt P20273); test: FACS on Raji and CHO-K1-human CD22 2C4 cells
[12] = target: T2, monkey CD22 (full length, on HEK293T cells) (monkey); test: FACS on HEK293T-monkey CD22 cells

binding [1]: binds | binding [2]: binds | binding [3]: binds | binding [4]: binds | binding [5]: binds | binding [6]: binds | binding [7]: binds | binding [8]: binds | binding [9]: binds | binding [10]: binds | binding [11]: binds | binding [12]: binds
B1: F2.121.9 (antibody, human IgG1, lambda, V domains shown)
VH: EVQLVESGGGLVKPGGSLKLSCAASGFTFSDYVMSWIRQTPEKRLEWVATISDAGSYTFYPDNLKGRFTISRDNAKNNLYLQMNHLTSEDTAFYYCAIIYFGNYGGYWGQGTLVTVSV
VL: QAVVTQESALTTSPGGTVVLTCRSNTGAVTTSNYANWVQEKPDHLFTGLIGGTSNRAPGVPVRFSGSLIGDKAALTITGAQTEDDAMYFCALWYSTHWVFGGGTKLTVLG

binding [1]: binds | binding [2]: binds | binding [3]: binds | binding [4]: binds | binding [5]: binds | binding [6]: binds | binding [7]: binds | binding [8]: binds | binding [9]: binds | binding [11]: binds | binding [12]: binds
B2: F2.205.9 (antibody, human IgG1, lambda, V domains shown)
VH: QVTLKESGPGILQPSQTLSLTCSFSGFSLSTSGMGVGWIRQPSGKGLEWLAHIWWDDDEYYNPALKSRLTISKDTSKNQVFLKIANVDTADTATYYCARISIPYGYYDWFFDVWGTGTTVTVSA
VL: QAVVTQESALTTSPGETVTLTCRSSTGAVTTRNYANWVQEKPDHLFTGLIGGTNNRAPGVPARFSGSLIGDKAALTITGAQTEDEAIYFCALWYSNHFIFGSGTKVTVLG
